Measured values reported in US4125501A, “Phosphites of sugar alcohols and polymers stabilized therewith” (Hoechst Aktiengesellschaft, priority 1976, dated 1978).

Experiment: stability to light in polypropylene (Xenotest)
Conditions: Xenotest 150, 0.20 part phosphite per 100 parts polypropylene

## Tri-(β-hydroxy-triacontyl)-sorbityl-triphosphite [Example 1]
  exposure time until elongation at break dropped to 10% of the initial value: 578 h
